Among the data in PMC10423209 are binding values, retold here.

The assay deals with T1, Flag-SLC26A3 (wild type) (human) (UniProt P40879).
T1 sequence: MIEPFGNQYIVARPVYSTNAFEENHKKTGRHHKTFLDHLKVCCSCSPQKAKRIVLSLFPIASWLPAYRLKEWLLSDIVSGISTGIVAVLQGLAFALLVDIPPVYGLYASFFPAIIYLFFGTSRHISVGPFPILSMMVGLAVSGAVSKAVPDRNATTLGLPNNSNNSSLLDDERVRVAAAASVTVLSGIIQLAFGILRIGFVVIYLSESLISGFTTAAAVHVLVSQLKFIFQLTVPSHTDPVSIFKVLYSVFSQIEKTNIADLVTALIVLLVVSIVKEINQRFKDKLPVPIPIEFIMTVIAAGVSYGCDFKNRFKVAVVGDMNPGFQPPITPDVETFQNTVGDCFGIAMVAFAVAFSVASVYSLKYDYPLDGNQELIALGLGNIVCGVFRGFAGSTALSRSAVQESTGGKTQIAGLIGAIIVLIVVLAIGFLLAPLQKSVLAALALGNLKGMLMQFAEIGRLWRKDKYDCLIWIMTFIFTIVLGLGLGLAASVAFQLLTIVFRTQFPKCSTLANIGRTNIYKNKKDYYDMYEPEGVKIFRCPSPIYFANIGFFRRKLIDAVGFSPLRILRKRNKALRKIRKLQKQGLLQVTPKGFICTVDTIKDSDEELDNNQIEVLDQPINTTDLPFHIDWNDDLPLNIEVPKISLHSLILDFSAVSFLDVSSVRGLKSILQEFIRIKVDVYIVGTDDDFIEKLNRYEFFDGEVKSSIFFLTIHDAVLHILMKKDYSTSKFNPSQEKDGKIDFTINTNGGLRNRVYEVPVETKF
As to the kind of experiment: co-IP; HEK293T (for the two fragments also HCT116) co-transfected with Flag-SLC26A3 and Myc-NHERF2 constructs for 48 h; Flag-tagged and Myc-tagged anti-beads.

These are yes or no findings as the source states them, for the method shown. Binding seen in cells or lysates may run through a third protein. Tags and fused reporters may be left off the sequences shown.

For the substance “Myc-NHERF2 C-terminal fragment (human) (domain or fragment)”, the binding entry is “no binding”.
